Data published in PMC12157864.
No constants are given. Whether binding was seen depends on the method and setting. Binding seen in cells or lysates may run through a third protein. Some results given as binding are weak or reduced against the parent protein; the word gives no strength.

Sequences of proteins named here, by UniProt entry; tags and fusion partners are left off. Residues count along the entry.
UniProt Q86WV6: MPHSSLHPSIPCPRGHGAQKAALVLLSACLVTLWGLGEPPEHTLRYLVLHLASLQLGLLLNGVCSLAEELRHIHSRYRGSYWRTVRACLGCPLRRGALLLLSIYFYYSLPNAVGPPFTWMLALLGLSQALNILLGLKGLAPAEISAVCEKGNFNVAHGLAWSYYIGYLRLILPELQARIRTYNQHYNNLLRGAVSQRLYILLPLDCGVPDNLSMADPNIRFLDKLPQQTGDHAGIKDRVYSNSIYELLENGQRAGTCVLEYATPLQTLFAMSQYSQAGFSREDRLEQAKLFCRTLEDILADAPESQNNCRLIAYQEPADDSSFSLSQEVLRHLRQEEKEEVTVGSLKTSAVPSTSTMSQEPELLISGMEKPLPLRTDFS
UniProt Q13586, residues 23-685: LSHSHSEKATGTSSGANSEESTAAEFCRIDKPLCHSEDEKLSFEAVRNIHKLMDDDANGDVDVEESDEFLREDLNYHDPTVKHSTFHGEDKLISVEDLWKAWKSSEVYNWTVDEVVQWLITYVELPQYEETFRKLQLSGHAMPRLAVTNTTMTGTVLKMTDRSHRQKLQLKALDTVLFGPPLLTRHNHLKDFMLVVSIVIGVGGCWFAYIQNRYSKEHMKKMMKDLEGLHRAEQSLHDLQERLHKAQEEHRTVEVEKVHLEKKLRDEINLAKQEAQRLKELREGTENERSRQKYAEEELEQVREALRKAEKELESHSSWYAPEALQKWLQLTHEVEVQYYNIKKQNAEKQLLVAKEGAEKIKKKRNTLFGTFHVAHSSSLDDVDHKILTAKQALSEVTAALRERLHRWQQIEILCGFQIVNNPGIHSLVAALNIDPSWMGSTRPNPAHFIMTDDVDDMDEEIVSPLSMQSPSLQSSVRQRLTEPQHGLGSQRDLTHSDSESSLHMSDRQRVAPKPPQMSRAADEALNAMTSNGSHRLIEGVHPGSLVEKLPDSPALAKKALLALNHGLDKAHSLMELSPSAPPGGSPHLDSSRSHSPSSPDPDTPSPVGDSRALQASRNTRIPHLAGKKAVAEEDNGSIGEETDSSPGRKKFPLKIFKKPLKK

Biological target: HA-MITA (MITA/STING), wild type (UniProt Q86WV6)
Assay: co-IP; […] (20 mM Tris-HCl pH 7.4, 150 mM NaCl, 1 mM EDTA, 1% Triton X-100); […]

## STIM1-FLAG (stromal interaction molecule 1) (from UniProt Q13586 23-685)
  binding: binds
